Assay results published in US20220324943A1.
No constants are given. Whether binding was seen depends on the method and setting. Some entries that bind do so weakly or less than the wild type. Where a sequence is shown, tags or fusion partners need not be part of it.

Amino acid sequences for entries named in this document (tags omitted). Residues count along the entry.
UniProt P05230, residues 16-155: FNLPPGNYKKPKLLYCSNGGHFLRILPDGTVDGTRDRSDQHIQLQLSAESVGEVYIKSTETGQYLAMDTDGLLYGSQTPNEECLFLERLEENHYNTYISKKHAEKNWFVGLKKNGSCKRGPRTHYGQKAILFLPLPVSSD
UniProt P09038, residues 143-288: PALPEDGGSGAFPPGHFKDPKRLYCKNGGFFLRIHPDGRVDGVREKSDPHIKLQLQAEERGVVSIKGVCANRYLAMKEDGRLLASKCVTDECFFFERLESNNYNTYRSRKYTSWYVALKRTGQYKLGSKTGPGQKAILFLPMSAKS

Assays:
acidic FGF [1] = biological target: acidic FGF (UniProt P05230); test: sensorgram (SPR by the legend, axis in nm); FGFR1-CCD injected over immobilized ligand, 600 s association, 600 s dissociation
basic FGF [2] = biological target: basic FGF (UniProt P09038); test: as above
acidic FGF [3] = biological target: acidic FGF (UniProt P05230); test: SPR, FGFR1-CCD injected over immobilized ligand
basic FGF [4] = biological target: basic FGF (UniProt P09038); test: SPR, FGFR1-CCD injected over immobilized ligand

Measured: binding

B1: FGFR1-CCD fusion protein (receptor)
chain: RPSPTLPEQAQPWGAPVEVESFLVHPGDLLQLRCRLRDDVQSINWLRDGVQLAESNRTRITGEEVEVQDSVPADSGLYACVTSSPSGSDTTYFSVNVSDALPSSEDDDDDDDSSSEEKETDNTKPNPVAPYWTSPEKMEKKLHAVPAAKTVKFKCPSSGTPNPTLRWLKNGKEFKPDHRIGGYKVRYATGSIIMDSVVPSDKGNYTCIVENEYGSINHTYQLDVVERSPHRPILQAGLPANKTVALGSNVEFMCKVYSDPQPHIQWLKHIEVNGSKIGPDNLPYVQILKTAGVNTTDKEMEVLHLRNVSFEDAGEYTCLAGNSIGLSHHSAWLTVLEALEERPAVMLKEFMGYQGPPGPPGPPGIPGNHGNNGNNGATGHEGAKGEKGDKGDLGPRGERGQHGPKGEKGYPGIPGYCGPPGPPGPPGIPGNHGNNGNNGATGHEGAKGEKGDKGDLGPRGERGQHGPKGEKGYPGIPDYKDDDDKLQISSTVAAAHHHHHHV
binds: all assays above
